Reference: PMC8167055
No constants are given. Whether binding was seen depends on the method and setting.

Target: Tubulin Polymerization Promoting Protein (TPPP/p25), human recombinant with hexaHis tag (human) (UniProt O94811)
Assay: ELISA; plate coated with 5 μg/ml mCherry-LC3B, TPPP/p25 or SYN, blocked with BSA; HeLa cell extract at various concentrations; bound endogenous SQSTM1/p62 detected by SQSTM1/p62 antibody; only the target purified

- binding: no binding
Substance: endogenous sequestosome 1 (SQSTM1/p62) from HeLa cell extract (from UniProt Q13501 1-440)
